Source: PubChem BioAssay (NCATS)
The inconclusive results got no clear call from the source; some entries with a clear call stand among them for comparison. Potencies beside an inconclusive call are fits to weak or partial responses and may not hold up. The source made the active and inactive calls. The call rests on the fitted dose curve; in most records, active means well fitted activation curve with a large enough effect; inconclusive means small, poorly fitted or top-dose-only effect, or another doubt; inactive means no such curve, though single readings can be large or run the other way.

Molecular target: Rap guanine nucleotide exchange factor 3 (Homo sapiens) (UniProt O95398)
Experiment: Counterscreen qHTS for agonist of cAMP-regulated guanine nucleotide exchange factor 3 (EPAC1) (AID 1645889); further: nearly all actives have a fitted effect of over 40% in size; on activation: % of control where 0% means no effect
Details: EPAC1 Rap1B-BODIPY-GDP exchange, fluorescence; activation: at 154 µM (top of the series) unless noted
Summary of the method: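 Measured: fluorescence of BODIPY-GDP bound to Rap1B, which falls as exchange proceeds. Conditions include 50 uM competing GDP, 5 and 30 min reads, and a later cAMP challenge for antagonist detection.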
Potency means the concentration at half of the fitted maximal effect.

Compound | Potency | activation
CC(C)OC(=O)/C(=C/c1ccc2c(c1)c1ccccc1n2C)NC(=O)c1ccccc1 | inconclusive: 14.1 µM [activator, partial curve, poor fit] | 
COc1ccc(S(=O)(=O)Nc2ncccc2C)c2ccccc12 |  | inactive: 29.7%
Cn1cc([C@]2(O)C(=O)Nc3ccc(OC(F)(F)F)cc32)c2ccccc21 |  | inactive: 32.2% [at 30.8 µM]
O=C1CCc2cc(NS(=O)(=O)c3ccc([N+](=O)[O-])cc3)cc3c2N1CC3 |  | inactive: -3.28%
CCCCCC(=O)Nc1ccc(C2C(=O)c3ccccc3C2=O)cc1 |  | inconclusive: 24.1% [activator]
Cc1ccc(C(=O)O/N=C(\c2ccccc2)c2cccnc2)cc1 |  | inactive: 8.08% [at 30.8 µM]
Cc1ccc(C)c(NC(=O)COC(=O)COc2cccc3c2OC(C)(C)C3)c1 |  | inactive: 3.82% [at 30.8 µM]
CCCCOc1ccccc1NC(=O)Cn1c(-c2cncs2)nc2ccccc21 | inconclusive: 0.398 µM [activator, full curve, poor fit] | 
O=C(OCc1c(-c2ccccc2)ncc2ccccc12)c1ccco1 |  | inactive: 11%
O=S(c1ccc2ccccc2c1)c1cnns1 (stereo not drawn) |  | inconclusive: 43.3% [activator]
O=C(CCCC(=O)Nc1cccnc1)Nc1cccnc1 |  | inconclusive: 49.2% [activator]
Cc1ccc(S(=O)(=O)N2[C@@H](CO)CO[C@H]2CC(=O)c2ccc(F)cc2)cc1 |  | inconclusive: 28.9% [activator]
COc1ccc2cc(-c3cn4c(n3)sc3cc(F)ccc34)c(=O)oc2c1 |  | inconclusive: 51% [activator]

Part of the list above in order of heavy-atom count, ascending.
Compound | Potency | activation
O=S(c1ccc2ccccc2c1)c1cnns1 (stereo not drawn) |  | inconclusive: 43.3% [activator]
O=C(OCc1c(-c2ccccc2)ncc2ccccc12)c1ccco1 |  | inactive: 11%
CC(C)OC(=O)/C(=C/c1ccc2c(c1)c1ccccc1n2C)NC(=O)c1ccccc1 | inconclusive: 14.1 µM [activator, partial curve, poor fit] | 
